Data as given in patent publication US20230348506A1, “MACROCYCLIC PANTETHEINE DERIVATIVES AND USES THEREOF” (VectivBio Comet AG, priority 2019, published 2023).
Some of these results come from one statement about several compounds together.

Columns and labels:
[1] = tested on: primary Type 1 diabetes myoblasts; experiment: Extracellular pyruvate concentration; format: cell-based, human; details: 10 μM compound
[2] = tested on: primary adherent fibroblast cell line derived from an Methylmalonic Acidemia (MMA) patient (GM01673, Coriell Institute for Medical Research); experiment: Mitochondrial respiration (Seahorse XFe96, OCR), Spare Capacity AUC; format: cell-based, human; details: medium with 1 mM glucose, 8 μM FCCP for 20 cycles, relative to vehicle
Experimental: The effect of the compounds of the present disclosure on mitochondrial respiration was measured with a XFe96 Extracellular Flux Analyzer (Seahorse Bioscience, Agilent Technologies) and Oxygen consumption Rate (OCR) and Extracellular acidification rate (ECAR) determined.
Cell culture and treatments. Primary adherent fibroblasts were cultured in minimum essential medium (MEM) (Gibco, 25030081) supplemented with 2 mM L-Glutamine (Gibco, 25030081), 15% fetal bovine serum (FBS) (Gibco, 26400044) and 1% penicillin/streptomycin (Gibco, 5140122) at 37° C. and 5% CO2. Cells were collected for either passaging or experiment at ˜70-80% confluence. Cells were obtained by trypsinization and seeded at 10,000 cells/well in cell culture microplates (Seahorse Bioscience, 101085-004) and allowed to adhere for 48 hours in culture media.
In the present example, 1 hour before the assay, the cells were washed with freshly prepared unbuffered serum free-Seahorse XF Assay medium (Seahorse Bioscience, North America, USA, 103575-100) with the appropriate supplements for the different primary cells (10 mM glucose, 2 mM L-glutamine, 1 mM pyruvate; 1 mM glucose, 2 mM L-glutamine, 1 mM pyruvate; 10 mM glucose; 5 mM glucose; 1 mM glucose).
Determining the optimized cell density and concentrations for stress test, such as FCCP, were achieved through methods well known to those of skill in the art. After baseline measurements of OCR, cells were challenged with compounds of the present disclosure at different concentrations (10 to 50 μM) or vehicle (DMSO, 0.1%) and a post-compound baseline was recorded. OCR was measured after sequentially adding to each well 1.5 μg/ml oligomycin (inhibitor of ATP synthase Sigma-Aldrich, 753531), then maximal OCR was determined with carbonyl cyanide 4-(trifluoromethoxy) phenylhydrazone (FCCP, Sigma-Aldrich, C2920), (uncoupler of oxidative phosphorylation) and 1.0 μM of rotenone (Sigma-Aldrich, R8875) plus antimycin A (Sigma-Aldrich, A8674) (inhibitors of mitochondrial complex I and III) for determination of rotenone-antimycin insensitive respiration together with Hoechst for nuclear staining in situ when normalized to cell counts. After the analysis and nuclear staining, the XFp microplate was transferred to the Cytation 5, and the nuclear images were captured, the individual nuclei were identified and counted by BioTek Gen5 software. Data were expressed as pmol of O2 per minute and normalized by cell number using Agilent's Seahorse Cell Analysis software, and baselined to pre-compound addition. Extracellular acidification rate (ECAR) was optionally measured on the Seahorse XFe96 analyser simultaneously with the OCR measurements in the same wells.
Assay conditions were as stated below: each cycle consists of a 3 min mix, and a 3 min measure step. […]

With CC(C)(CO)[C@H]1OC(=O)CCC(=O)SCCNC(=O)CCNC1=O [Compound 61, (R)-2-(1-hydroxy-2-methylpropan-2-yl)-1-oxa-11-thia-4,8-diazacyclopentadecane-3,7,12,15-tetraone] the “decrease of extracellular pyruvate concentration relative to vehicle” value [1] was “at least 15%”.

CC(=O)OCC(C)(C)[C@H]1OC(=O)CCC(=O)SCCNC(=O)CCNC1=O [Compound 62, (R)-2-methyl-2-(3,7,12,15-tetraoxo-1-oxa-11-thia-4,8-diazacyclopentadecan-2-yl)propyl acetate] was tested, and the “increase of Spare Capacity AUC” value ([2]; 50 μM compound) was “at least 5%”.

C[C@H](N)C(=O)OCC(C)(C)[C@H]1OC(=O)CCC(=O)SCCNC(=O)CCNC1=O [Compound 78, 2-methyl-2-((R)-3,7,12,15-tetraoxo-1-oxa-11-thia-4,8-diazacyclopentadecan-2-yl)propyl L-alaninate] was tested, and the “increase of Spare Capacity AUC” value ([2]; 10 μM compound) was “at least 5%”.

In the case of CC1(C)COC(=O)CCC(=O)SCCNC(=O)CCNC(=O)[C@@H]1O [Compound 206, (R)-15-hydroxy-16,16-dimethyl-1-oxa-6-thia-9,13-diazacycloheptadecane-2,5,10,14-tetraone], the “increase of Spare Capacity AUC” value ([2]; 10 μM compound) was “at least 5%”, the “increase of Spare Capacity AUC” value ([2]; 50 μM compound) was “at least 5%” and the “decrease of extracellular pyruvate concentration relative to vehicle” value [1] was “at least 15%”.
